# In the supplement of paper PMC8732350:
# “And” between values parts separate entries of the source, which are not always exact repeats. Identical values can stand only once. Counter-ions that a name gives are not always drawn. ± gives the standard deviation of the averaged measurements. This is one part of the list. Repeats in this data set agree poorly, so a single value says little.
# Test system: A549
# Assay: surface PD-L1 immunofluorescence intensity relative to IFN-gamma-only control (ratio); higher = more PD-L1 expression
# Settings: 10 µM; exposure time 24 h; IFN-gamma 100 ng/mL
row,Structure (SMILES),surface PD-L1 immunofluorescence intensity
1,CC(C)(OCc1nn(Cc2ccccc2)c2ccccc12)C(=O)O [Bindarit],0.975
2,NC1CCN(c2cccc(Cl)n2)CC1,0.979
3,Cc1cccc(-c2[nH]c(C(C)(C)C)nc2-c2ccc3c(c2)OCO3)n1,0.995
4,CC(NC(=O)c1ccccc1/N=C/c1c(O)ccc2ccccc12)c1ccccc1 (stereo not given) [Sirtinol],1.05 ± 0.021
5,CCC[C@@H]1C[C@@H](C(=O)N[C@@H]([C@H]2O[C@H](SC)[C@H](O)[C@@H](O)[C@H]2O)[C@H](C)Cl)N(C)C1 [Clindamycin HCl (Dalacin)],0.866
6,CCC[C@@H]1C[C@@H](C(=O)N[C@@H]([C@H]2O[C@H](SC)[C@H](O)[C@@H](O)[C@H]2O)[C@H](C)Cl)N(C)C1 [Clindamycin hydrochloride],0.918
7,C=C1/C(=C\C=C2/CCC[C@]3(C)[C@@H]([C@H](C)CCCC(C)C)CC[C@@H]23)C[C@@H](O)C[C@@H]1O [Alfacalcidol],1.03
8,CC(=O)N[C@@H](Cc1c[nH]c2ccccc12)C(=O)OCc1cc(C(F)(F)F)cc(C(F)(F)F)c1,0.906
9,Cc1ccc2c(c1)c1c3n2CCNC3CCC1 (stereo not given) [Pirlindole mesylate],1.03 ± 0.058
10,CCN(CC)CCNC(=O)c1cc(Cl)c(N)cc1OC [Metoclopramide monohydrochloride],0.948
11,CC(C)(CO)C(O)C(=O)NCCCO (stereo not given) [Panthenol (D)],0.851
12,CN(C)C/C=C(/c1ccc(Br)cc1)c1cccnc1 [Zimelidine dihydrochloride],0.947
13,CN(C)C/C=C(/c1ccc(Br)cc1)c1cccnc1 [Zimelidine dihydrochloride monohydrate],0.96
14,CCOc1ccc2ccccc2c1C(=O)N[C@@H]1C(=O)N2[C@@H]1SC(C)(C)[C@@H]2C(=O)O [Nafcillin sodium salt monohydrate],0.933
15,Cn1cnc2c1c(=O)[nH]c(=O)n2C [Theobromine],1.07
16,CC1=NN(c2ccccc2)C(=O)C1,0.982 ± 0.031
17,Nc1ccccc1S(N)(=O)=O [2-Aminobenzenesulfonamide],1.01
18,COc1ccccc1Oc1c(NS(=O)(=O)c2ccc(C(C)(C)C)cc2)nc(-c2ncccn2)nc1OCCO [Bosentan],1.03
19,C[S+]([O-])c1ccc(-c2nc(-c3ccc(F)cc3)c(-c3ccncc3)[nH]2)cc1 (stereo not given),0.957 and 1.04
20,O=C(/C=C/c1ccc(O)cc1)CC(=O)/C=C/c1ccc(O)cc1 [bis-demethoxycurcumin],0.971
21,CC1=CC(=O)C(C(C)C)=CC1=O [Thymoquinone],0.982
22,CN(C)CCC=C1c2ccccc2COc2ccccc21 [Doxepin hydrochloride],0.965 ± 0.075
23,CC(C)[N+](C)(CCOC(=O)C1c2ccccc2Oc2ccccc21)C(C)C [Propantheline bromide],1.02

row,Structure (SMILES),surface PD-L1 immunofluorescence intensity
1,CN1CCC[C@@H]1Cc1c[nH]c2ccc(CCS(=O)(=O)c3ccccc3)cc12 [Eletriptan hydrobromide],1.02
2,N[C@@H](C(=O)N[C@@H]1C(=O)N2C(C(=O)O)=C(Cl)CC[C@H]12)c1ccccc1 [Loracarbef],0.995
3,Cc1onc(-c2ccccc2Cl)c1C(=O)N[C@@H]1C(=O)N2[C@@H]1SC(C)(C)[C@@H]2C(=O)O [Cloxacillin sodium salt],1.01
4,Cc1onc(-c2ccccc2Cl)c1C(=O)N[C@@H]1C(=O)N2[C@@H]1SC(C)(C)[C@@H]2C(=O)O [Cloxacillin sodium (Cloxacap)],0.885
5,C#Cc1cccc(Nc2ncnc3cc(OCCOC)c(OCCOC)cc23)c1 [Erlotinib],0.89
6,COc1ccc(Cn2ccc3ccc(C(=O)NO)cc32)cc1,1.03
7,COC(=O)C1=CO[C@@H](O[C@@H]2O[C@H](CO)[C@@H](O)[C@H](O)[C@H]2O)[C@@H]2C(CO)=CC[C@H]12 [Geniposide],1.02
8,N#Cc1ccc(C2CCCc3cncn32)cc1 (stereo not given) [Fadrozole hydrochloride],0.846
9,NS(=O)(=O)c1cc2c(cc1Cl)NC(C(Cl)Cl)NS2(=O)=O (stereo not given) [Trichlormethiazide],0.992
10,CN[C@@H]1[C@H](O)[C@H](NC)[C@H]2O[C@@]3(O)C(=O)C[C@@H](C)O[C@H]3O[C@@H]2[C@H]1O [Spectinomycin dihydrochloride],0.979
11,Cc1c(-c2ccccc2)oc2c(C(=O)OCCN3CCCCC3)cccc2c1=O [Flavoxate hydrochloride],0.868
12,"CCCCCCOC(=O)NC(=N)c1ccc(NCc2nc3cc(C(=O)N(CCC(=O)OCC)c4ccccn4)ccc3n2C)cc1 [BIBR-1048 (Dabigatran etexilate, Pradaxa)]",1.04
13,CCCCCCCCCCCCCCCCCCCCCCO [Docosanol (Abreva)],1.08
14,COc1ccc(O)cc1 [Mequinol],1.04
15,CC(C)C[C@@H](C(=O)N[C@H](C(=O)OC1CCCC1)c1ccccc1)[C@H](O)C(=O)NO,0.975
16,CN[C@@H]1[C@@H](O[C@H]2O[C@H](CO)[C@@H](N)[C@H](O)[C@H]2O)OC2C[C@@H](N)[C@@H](O[C@H]3[C@H](O)[C@@H](O)[C@H](N)C[C@@H]3N)OC2[C@@H]1O (stereo not given in full) [Apramycin],0.997
17,CC1(C)O[C@H]2CC(=O)OC[C@]23[C@H]2CC[C@@]4(C)[C@H](c5ccoc5)OC(=O)[C@H]5O[C@]54[C@]2(C)C(=O)C[C@@H]13 [Limonin],1.03
18,Cc1ccccc1C(=O)Nc1ccc(C(=O)N2CCCC(O)c3cc(Cl)ccc32)c(C)c1 (stereo not given),0.974
19,COc1ccccc1N1CCN(CCN2C(=O)c3ccccc3C(C)(C)C2=O)CC1 [ARC 239 dihydrochloride],1
20,CC(=O)O[C@H]1CC[C@@]2(C)C(=CC[C@@H]3[C@@H]2CC[C@]2(C)C(c4cccnc4)=CC[C@@H]32)C1 [Abiraterone Acetate (CB7630)],0.981
21,CC(C)c1cc2c(c(O)c1O)[C@@]13CCCC(C)(C)[C@@H]1C[C@@H]2OC3=O [Carnosol],1.01
22,CN(C)C(=O)C(CCN1CCC(O)(c2ccc(Cl)cc2)CC1)(c1ccccc1)c1ccccc1 [Loperamide hydrochloride],0.981 ± 0.026
